Results reported in PMC5207774, “Atomic structures of fibrillar segments of hIAPP suggest tightly mated β-sheets are important for cytotoxicity” (eLife, 2017).
These are yes or no findings as the source states them, for the method shown. Some results given as binding are weak or reduced against the parent protein; the word gives no strength.

What was measured:
[1] = target: hIAPP segment 15–25 WT (15-…-25) (human); test: turbidity (absorbance at 340 nm) + negative-stain EM; fibrils formed for one week, monomer equivalent concentrations, treated with water or increasing amounts of SDS, heated at 55°C for 20 min; both purified
[2] = target: hIAPP segment 15–25 WT (15-…-25) (human); test: condition: only with heat (55°C for 20 min) and 1% SDS; turbidity (absorbance at 340 nm) + negative-stain EM; fibrils formed for one week, monomer equivalent concentrations, treated with water or increasing amounts of SDS, heated at 55°C for 20 min; both purified

B1: hIAPP segment 15–25 WT (15-FLVHSSNNFGA-25) (peptide)
peptide: FLVHSSNNFGA
notes: human islet amyloid polypeptide (hIAPP), residues 15-25, wild type; numbers count on: the mature protein (37-residue hormone); Forms 3D nanocrystals and fibrils (striated ribbons); also called spine segment 15–25 WT; source: synthetic peptide: GenScript, greater than 98% purity
binding [1]: binds weakly
binding [2]: no binding
